Reference: the supplement of paper PMC12823440, “Inhibitors supercharge kinase turnover through native proteolytic circuits” (Nature, 2025)
The other results are listed elsewhere or left out. The calls rarely recur for the same compound in another form.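 In K562 cells expressing nanoluciferase-fused kinases, luminescence was recorded at 4 h intervals between 2 and 18 h, normalized as percent of control with DMSO at 100% and a positive control at 0%. A significant (2 sigma) signal drop marks a time point as decreased. The authors' rule for a hit is not shown and takes in more than the number of time points.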

By UniProt entry, the sequences of proteins in these tests, tags left out. Where a name states a change or a piece, a line headed by the entry shows the natural chain unless it says otherwise.
UniProt P28482, whole entry: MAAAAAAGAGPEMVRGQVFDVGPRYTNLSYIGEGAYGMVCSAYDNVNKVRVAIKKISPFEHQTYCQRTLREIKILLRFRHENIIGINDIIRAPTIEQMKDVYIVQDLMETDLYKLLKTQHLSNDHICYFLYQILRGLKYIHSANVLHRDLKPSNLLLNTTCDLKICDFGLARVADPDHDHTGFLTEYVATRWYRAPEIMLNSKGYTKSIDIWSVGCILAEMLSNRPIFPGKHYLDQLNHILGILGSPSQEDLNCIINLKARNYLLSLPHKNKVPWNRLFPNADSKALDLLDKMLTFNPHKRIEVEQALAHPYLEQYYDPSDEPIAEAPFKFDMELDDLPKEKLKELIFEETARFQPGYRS
UniProt Q15131: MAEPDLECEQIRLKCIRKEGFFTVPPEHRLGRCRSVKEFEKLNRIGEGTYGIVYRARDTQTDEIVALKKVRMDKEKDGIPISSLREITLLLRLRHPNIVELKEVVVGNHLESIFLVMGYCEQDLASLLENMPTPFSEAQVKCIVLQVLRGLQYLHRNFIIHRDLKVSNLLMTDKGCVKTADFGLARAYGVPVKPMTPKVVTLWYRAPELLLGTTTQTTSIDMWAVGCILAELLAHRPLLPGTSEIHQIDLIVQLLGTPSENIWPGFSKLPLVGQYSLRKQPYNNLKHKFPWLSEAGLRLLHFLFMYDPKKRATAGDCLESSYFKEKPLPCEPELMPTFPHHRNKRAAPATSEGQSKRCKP
UniProt Q01974, whole entry: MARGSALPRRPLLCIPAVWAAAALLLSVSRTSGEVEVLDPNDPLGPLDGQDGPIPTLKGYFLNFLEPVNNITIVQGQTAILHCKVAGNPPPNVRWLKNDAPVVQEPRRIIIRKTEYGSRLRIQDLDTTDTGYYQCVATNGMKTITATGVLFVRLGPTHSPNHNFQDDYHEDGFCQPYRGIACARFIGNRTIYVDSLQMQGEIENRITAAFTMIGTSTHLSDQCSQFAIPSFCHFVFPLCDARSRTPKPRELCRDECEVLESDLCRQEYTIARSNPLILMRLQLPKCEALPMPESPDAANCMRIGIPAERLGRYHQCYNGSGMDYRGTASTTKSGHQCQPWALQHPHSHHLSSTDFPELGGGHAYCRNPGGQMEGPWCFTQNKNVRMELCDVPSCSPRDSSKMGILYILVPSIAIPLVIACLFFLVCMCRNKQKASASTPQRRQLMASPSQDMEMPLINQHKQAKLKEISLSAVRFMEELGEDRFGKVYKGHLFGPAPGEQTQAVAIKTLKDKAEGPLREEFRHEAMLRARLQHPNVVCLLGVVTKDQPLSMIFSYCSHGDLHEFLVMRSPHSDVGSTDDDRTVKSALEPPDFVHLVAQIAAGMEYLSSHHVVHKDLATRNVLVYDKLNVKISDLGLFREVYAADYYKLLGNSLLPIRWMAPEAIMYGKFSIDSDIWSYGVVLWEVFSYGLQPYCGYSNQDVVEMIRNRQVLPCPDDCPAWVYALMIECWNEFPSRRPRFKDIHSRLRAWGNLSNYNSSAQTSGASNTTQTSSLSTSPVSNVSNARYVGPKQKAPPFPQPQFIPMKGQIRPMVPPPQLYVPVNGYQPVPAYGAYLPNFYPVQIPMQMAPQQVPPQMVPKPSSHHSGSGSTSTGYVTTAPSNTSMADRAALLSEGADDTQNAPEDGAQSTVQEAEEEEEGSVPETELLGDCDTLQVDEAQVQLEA
UniProt Q15418, whole entry: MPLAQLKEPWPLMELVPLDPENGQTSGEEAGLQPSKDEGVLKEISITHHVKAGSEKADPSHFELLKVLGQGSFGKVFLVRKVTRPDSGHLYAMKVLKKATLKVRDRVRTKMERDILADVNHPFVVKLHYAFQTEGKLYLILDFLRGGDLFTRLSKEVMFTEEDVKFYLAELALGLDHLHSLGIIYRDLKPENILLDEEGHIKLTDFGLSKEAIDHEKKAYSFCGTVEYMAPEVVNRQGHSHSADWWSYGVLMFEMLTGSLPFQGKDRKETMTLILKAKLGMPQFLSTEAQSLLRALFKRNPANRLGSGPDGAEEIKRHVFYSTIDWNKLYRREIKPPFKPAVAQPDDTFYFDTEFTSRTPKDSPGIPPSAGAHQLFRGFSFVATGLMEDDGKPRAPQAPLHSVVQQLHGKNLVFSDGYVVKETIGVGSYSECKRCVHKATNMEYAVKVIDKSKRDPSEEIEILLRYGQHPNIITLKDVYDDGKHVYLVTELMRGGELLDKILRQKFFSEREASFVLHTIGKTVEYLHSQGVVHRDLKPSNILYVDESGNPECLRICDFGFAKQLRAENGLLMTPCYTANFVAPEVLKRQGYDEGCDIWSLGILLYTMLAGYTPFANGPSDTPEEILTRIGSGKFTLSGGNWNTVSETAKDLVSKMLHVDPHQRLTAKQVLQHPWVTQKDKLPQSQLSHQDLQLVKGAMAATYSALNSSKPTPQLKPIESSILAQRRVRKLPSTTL
UniProt Q9Y6E0: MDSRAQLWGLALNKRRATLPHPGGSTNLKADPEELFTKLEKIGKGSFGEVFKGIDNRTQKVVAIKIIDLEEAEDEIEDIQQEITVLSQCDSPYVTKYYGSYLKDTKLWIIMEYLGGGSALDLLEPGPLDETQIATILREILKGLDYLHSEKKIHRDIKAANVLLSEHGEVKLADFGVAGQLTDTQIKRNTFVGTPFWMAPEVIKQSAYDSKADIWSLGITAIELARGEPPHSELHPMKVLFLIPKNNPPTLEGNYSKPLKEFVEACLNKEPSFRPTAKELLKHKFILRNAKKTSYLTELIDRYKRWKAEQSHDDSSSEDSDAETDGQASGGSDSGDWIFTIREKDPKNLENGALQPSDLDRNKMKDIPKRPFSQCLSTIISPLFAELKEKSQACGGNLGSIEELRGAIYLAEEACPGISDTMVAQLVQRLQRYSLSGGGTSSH
UniProt P49137, whole entry, looked up: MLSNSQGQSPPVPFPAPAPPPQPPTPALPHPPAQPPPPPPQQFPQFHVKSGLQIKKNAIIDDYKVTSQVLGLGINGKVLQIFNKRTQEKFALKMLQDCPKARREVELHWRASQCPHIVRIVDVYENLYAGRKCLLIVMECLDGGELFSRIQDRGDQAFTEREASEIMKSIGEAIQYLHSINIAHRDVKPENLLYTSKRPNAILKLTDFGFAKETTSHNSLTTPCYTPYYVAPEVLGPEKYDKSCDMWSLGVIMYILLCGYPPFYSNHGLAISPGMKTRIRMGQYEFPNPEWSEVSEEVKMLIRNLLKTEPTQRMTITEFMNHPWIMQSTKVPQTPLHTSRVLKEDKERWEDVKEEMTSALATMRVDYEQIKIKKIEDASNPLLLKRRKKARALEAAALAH
UniProt Q9NYA1, whole entry: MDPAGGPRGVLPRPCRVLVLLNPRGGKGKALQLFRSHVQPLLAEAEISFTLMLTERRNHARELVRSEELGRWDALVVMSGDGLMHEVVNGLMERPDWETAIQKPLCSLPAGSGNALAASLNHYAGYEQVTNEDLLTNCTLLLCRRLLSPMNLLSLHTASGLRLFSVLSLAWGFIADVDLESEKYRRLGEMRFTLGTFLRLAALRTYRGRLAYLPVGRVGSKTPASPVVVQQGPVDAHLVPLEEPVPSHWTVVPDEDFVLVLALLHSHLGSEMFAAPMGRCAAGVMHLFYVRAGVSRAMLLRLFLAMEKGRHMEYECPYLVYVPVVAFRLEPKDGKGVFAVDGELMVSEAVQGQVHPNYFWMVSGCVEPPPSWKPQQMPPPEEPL
UniProt Q9BRS2: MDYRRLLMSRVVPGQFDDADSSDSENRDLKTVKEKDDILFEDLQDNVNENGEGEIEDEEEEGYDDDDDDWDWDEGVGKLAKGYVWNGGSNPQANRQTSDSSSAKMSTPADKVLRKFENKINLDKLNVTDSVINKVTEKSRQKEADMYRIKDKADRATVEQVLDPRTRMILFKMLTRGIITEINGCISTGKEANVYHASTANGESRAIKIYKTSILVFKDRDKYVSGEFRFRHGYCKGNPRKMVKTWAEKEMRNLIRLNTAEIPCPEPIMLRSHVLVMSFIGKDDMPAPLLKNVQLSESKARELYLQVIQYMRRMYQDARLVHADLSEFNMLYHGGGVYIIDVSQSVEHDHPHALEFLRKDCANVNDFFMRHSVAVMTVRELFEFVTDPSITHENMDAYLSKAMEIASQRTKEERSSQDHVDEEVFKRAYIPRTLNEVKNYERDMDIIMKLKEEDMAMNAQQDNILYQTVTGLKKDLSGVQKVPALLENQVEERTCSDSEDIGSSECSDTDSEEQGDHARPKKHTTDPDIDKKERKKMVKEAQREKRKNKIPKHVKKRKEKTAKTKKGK
UniProt Q12851: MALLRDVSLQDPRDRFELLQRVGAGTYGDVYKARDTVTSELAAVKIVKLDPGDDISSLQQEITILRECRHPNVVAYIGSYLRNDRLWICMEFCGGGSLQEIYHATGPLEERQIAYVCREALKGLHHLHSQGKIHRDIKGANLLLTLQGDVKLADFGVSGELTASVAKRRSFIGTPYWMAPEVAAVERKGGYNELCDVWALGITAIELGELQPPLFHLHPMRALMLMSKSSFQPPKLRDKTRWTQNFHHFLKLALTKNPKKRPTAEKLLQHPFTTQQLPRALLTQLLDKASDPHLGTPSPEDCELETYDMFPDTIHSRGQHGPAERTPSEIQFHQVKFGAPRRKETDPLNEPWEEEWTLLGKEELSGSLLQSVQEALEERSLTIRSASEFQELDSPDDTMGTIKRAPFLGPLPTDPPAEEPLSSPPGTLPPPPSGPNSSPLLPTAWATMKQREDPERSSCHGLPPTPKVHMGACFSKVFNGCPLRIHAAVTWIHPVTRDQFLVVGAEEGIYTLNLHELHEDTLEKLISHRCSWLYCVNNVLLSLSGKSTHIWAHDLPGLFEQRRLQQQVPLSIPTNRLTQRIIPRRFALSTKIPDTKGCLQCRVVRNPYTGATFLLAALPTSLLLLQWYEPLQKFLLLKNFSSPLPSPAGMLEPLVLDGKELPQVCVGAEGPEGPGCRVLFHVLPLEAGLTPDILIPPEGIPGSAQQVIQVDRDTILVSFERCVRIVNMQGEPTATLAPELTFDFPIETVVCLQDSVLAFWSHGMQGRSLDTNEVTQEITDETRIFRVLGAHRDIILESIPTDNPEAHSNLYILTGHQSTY
UniProt Q9BUB5: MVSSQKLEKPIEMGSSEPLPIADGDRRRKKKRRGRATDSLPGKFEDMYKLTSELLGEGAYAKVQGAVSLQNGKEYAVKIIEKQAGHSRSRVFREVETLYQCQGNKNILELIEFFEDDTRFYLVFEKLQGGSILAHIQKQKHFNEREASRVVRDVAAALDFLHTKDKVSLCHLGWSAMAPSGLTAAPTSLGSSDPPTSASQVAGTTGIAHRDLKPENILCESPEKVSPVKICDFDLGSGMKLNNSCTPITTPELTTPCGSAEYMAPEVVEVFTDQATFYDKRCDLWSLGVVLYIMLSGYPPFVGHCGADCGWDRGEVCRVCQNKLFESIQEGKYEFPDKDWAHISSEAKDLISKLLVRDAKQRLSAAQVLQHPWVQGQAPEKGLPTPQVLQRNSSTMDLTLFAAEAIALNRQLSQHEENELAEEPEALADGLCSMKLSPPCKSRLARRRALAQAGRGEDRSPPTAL
UniProt P29317, whole entry: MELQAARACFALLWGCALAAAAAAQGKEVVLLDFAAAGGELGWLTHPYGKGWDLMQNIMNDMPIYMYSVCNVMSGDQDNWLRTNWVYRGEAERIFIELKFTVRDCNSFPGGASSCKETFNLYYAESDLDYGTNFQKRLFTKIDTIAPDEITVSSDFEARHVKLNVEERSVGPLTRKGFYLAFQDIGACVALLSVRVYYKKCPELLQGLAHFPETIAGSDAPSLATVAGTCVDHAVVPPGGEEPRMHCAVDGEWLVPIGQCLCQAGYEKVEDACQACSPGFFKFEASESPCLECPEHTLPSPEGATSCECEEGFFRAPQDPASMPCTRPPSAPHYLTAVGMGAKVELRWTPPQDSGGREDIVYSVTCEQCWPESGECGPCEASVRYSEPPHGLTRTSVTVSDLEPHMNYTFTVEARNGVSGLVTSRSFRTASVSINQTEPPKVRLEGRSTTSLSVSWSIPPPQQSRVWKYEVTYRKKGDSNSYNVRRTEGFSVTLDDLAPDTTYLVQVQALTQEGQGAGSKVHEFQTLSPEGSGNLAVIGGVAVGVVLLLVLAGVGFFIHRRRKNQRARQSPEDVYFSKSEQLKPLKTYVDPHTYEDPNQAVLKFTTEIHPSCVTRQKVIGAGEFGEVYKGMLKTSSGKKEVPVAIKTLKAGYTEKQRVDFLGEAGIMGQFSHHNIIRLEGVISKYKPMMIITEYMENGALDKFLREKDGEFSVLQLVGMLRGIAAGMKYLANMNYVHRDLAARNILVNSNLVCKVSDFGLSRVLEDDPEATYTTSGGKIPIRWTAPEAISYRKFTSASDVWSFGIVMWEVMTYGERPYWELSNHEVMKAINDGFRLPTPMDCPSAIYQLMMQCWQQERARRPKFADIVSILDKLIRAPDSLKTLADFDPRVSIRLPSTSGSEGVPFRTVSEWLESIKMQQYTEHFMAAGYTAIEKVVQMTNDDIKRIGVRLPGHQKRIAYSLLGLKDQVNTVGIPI

Columns and labels:
Assay in all cases: number of time points (of 5) at which kinase-Nluc abundance scored as decreased, DMSO-normalised (count); higher = more persistent destabilization
[1] = compound: CC(C)N(CCC(=O)c1ccc2ccccc2c1)Cc1ccccc1; details: 10 µM; K562; 2-18 h
[2] = compound: CC(C)[C@@](C)(O)[C@@H]1CN(c2nc(-c3[nH]nc4ncccc34)c(F)cc2Cl)CCN1; details: 10 µM; K562; 2-18 h
Torkinib = compound: CC(C)n1nc(-c2cc3cc(O)ccc3[nH]2)c2c(N)ncnc21 [Torkinib]; details: 2.5 µM; K562; 2-18 h
[3] = compound: CC1(C)C(=O)N([C@H]2CCc3c(O)cccc32)c2nc(Nc3cccc(CN4CCCC4)c3)ncc21; details: 2.5 µM; K562; 2-18 h
Motesanib (Diphosphate) = compound: CC1(C)CNc2cc(NC(=O)c3cccnc3NCc3ccncc3)ccc21 [Motesanib (Diphosphate)]; details: 2.5 µM; K562; 2-18 h
Motesanib = compound: CC1(C)CNc2cc(NC(=O)c3cccnc3NCc3ccncc3)ccc21 [Motesanib]; details: 2.5 µM; K562; 2-18 h
[4] = compound: CCCCCC1CC1CC1CC1CCCCCCCC(=O)OC; details: 10 µM; K562; 2-18 h
[5] = compound: CCCCCCCCCCCCc1ccc(S(=O)(=O)Nc2nncs2)cc1; details: 10 µM; K562; 2-18 h
[6] = compound: CCCOc1ccc(C=C2SC(=O)NC2=O)cc1; details: 10 µM; K562; 2-18 h
Sunitinib = compound: CCN(CC)CCNC(=O)c1c(C)[nH]c(/C=C2\C(=O)Nc3ccc(F)cc32)c1C [Sunitinib]; details: 2.5 µM; K562; 2-18 h
Pelitinib = compound: CCOc1cc2ncc(C#N)c(Nc3ccc(F)c(Cl)c3)c2cc1NC(=O)/C=C/CN(C)C [Pelitinib]; details: 2.5 µM; K562; 2-18 h
JNK Inhibitor VIII = compound: CCOc1nc(NC(=O)Cc2cc(OC)ccc2OC)cc(N)c1C#N [JNK Inhibitor VIII]; details: 10 µM; K562; 2-18 h
[7] = compound: CC[C@@H]1C(=O)N(C)c2cnc(Nc3ccc(C(=O)NC4CCN(C)CC4)cc3OC)nc2N1C1CCCC1; details: 10 µM; K562; 2-18 h
[8] = compound: CCc1cc2c(cc1-c1cnn(CC(=O)N(C)C)c1)C(C)(C)c1[nH]c3cc(C#N)ccc3c1C2=O; details: 2.5 µM; K562; 2-18 h
Ripretinib = compound: CCn1c(=O)c(-c2cc(NC(=O)Nc3ccccc3)c(F)cc2Br)cc2cnc(NC)cc21 [Ripretinib]; details: 10 µM; K562; 2-18 h
Dovitinib (lactate) = compound: CN1CCN(c2ccc3nc(-c4c(N)c5c(F)cccc5[nH]c4=O)[nH]c3c2)CC1 [Dovitinib (lactate)]; details: 2.5 µM; K562; 2-18 h
Dovitinib = compound: CN1CCN(c2ccc3nc(-c4c(N)c5c(F)cccc5[nH]c4=O)[nH]c3c2)CC1 [Dovitinib]; details: 2.5 µM; K562; 2-18 h
Sotrastaurin = compound: CN1CCN(c2nc(C3=C(c4c[nH]c5ccccc45)C(=O)NC3=O)c3ccccc3n2)CC1 [Sotrastaurin]; details: 2.5 µM; K562; 2-18 h
Sorafenib (Tosylate) = compound: CNC(=O)c1cc(Oc2ccc(NC(=O)Nc3ccc(Cl)c(C(F)(F)F)c3)cc2)ccn1 [Sorafenib (Tosylate)]; details: 10 µM; K562; 2-18 h

Row | Target | number of time points [1] | number of time points [2] | number of time points (Torkinib) | number of time points [3] | number of time points (Motesanib (Diphosphate)) | number of time points (Motesanib) | number of time points [4] | number of time points [5] | number of time points [6] | number of time points (Sunitinib) | number of time points (Pelitinib) | number of time points (JNK Inhibitor VIII) | number of time points [7] | number of time points [8] | number of time points (Ripretinib) | number of time points (Dovitinib (lactate)) | number of time points (Dovitinib) | number of time points (Sotrastaurin) | number of time points (Sorafenib (Tosylate))
1 | CHEK2 (UniProt O96017) | 0 | 3 | 0 | 0 | 0 | 0 | 0 | 0 | 0 | 0 | 0 | 0 | 0 | 0 | 0 | 0 | 0 | 0 | 0
2 | FGR (UniProt P09769) | 0 | 0 | 0 | 0 | 0 | 0 | 0 | 0 | 0 | 0 | 0 | 0 | 0 | 0 | 0 | 0 | 0 | 0 | 0
3 | FYN (UniProt P06241) | 0 | 0 | 1 | 3 | 0 | 0 | 0 | 0 | 0 | 3 | 0 | 0 | 0 | 0 | 0 | 0 | 0 | 0 | 0
4 | RIPK2 (UniProt O43353) | 0 | 0 | 3 | 0 | 0 | 0 | 0 | 0 | 0 | 0 | 0 | 0 | 0 | 0 | 0 | 0 | 0 | 0 | 0
5 | GSK3A (UniProt P49840) | 0 | 0 | 0 | 0 | 0 | 0 | 0 | 0 | 0 | 0 | 0 | 0 | 0 | 0 | 0 | 0 | 0 | 0 | 0
6 | HER2 (UniProt P04626) | 0 | 2 | 0 | 3 | 0 | 0 | 0 | 0 | 0 | 0 | 4 | 0 | 0 | 0 | 0 | 0 | 0 | 0 | 0
7 | MAPK1 (UniProt P28482) | 0 | 0 | 0 | 0 | 0 | 0 | 0 | 0 | 0 | 0 | 0 | 0 | 0 | 0 | 0 | 0 | 0 | 0 | 0
8 | ERBB3 (UniProt P21860) | 0 | 0 | 4 | 3 | 0 | 0 | 0 | 0 | 0 | 0 | 0 | 0 | 3 | 0 | 5 | 0 | 0 | 0 | 0
9 | PDK1 (UniProt Q15118) | 0 | 0 | 0 | 0 | 0 | 0 | 0 | 0 | 0 | 0 | 0 | 0 | 2 | 0 | 0 | 0 | 0 | 0 | 0
10 | PIK4CA (UniProt P42356) | 0 | 0 | 0 | 2 | 0 | 0 | 0 | 0 | 0 | 0 | 0 | 0 | 1 | 0 | 4 | 0 | 0 | 0 | 0
11 | CDK10 (UniProt Q15131) | 0 | 0 | 0 | 0 | 0 | 0 | 0 | 0 | 0 | 0 | 0 | 0 | 0 | 0 | 0 | 0 | 0 | 0 | 0
12 | ROR2 (UniProt Q01974) | 0 | 0 | 0 | 0 | 0 | 0 | 0 | 0 | 0 | 0 | 0 | 0 | 0 | 0 | 0 | 0 | 0 | 0 | 0
13 | AURKB (UniProt Q96GD4) | 0 | 0 | 4 | 3 | 0 | 0 | 0 | 0 | 0 | 3 | 0 | 0 | 0 | 0 | 0 | 0 | 0 | 0 | –
14 | PIK4CB (UniProt Q9UBF8) | 0 | 0 | 0 | 3 | 0 | 0 | 0 | 0 | 0 | 0 | 0 | 0 | 3 | 0 | 4 | 0 | 0 | 1 | 0
15 | IRAK3 (UniProt Q9Y616) | 0 | 0 | 0 | 3 | 0 | 0 | 0 | 0 | 0 | 0 | 0 | 0 | 0 | 0 | 5 | 0 | 0 | 0 | 0
16 | RAF1_S257L (clone: RAF1_mut) (UniProt P04049) | 0 | 0 | 2 | 4 | 0 | 0 | 0 | 0 | 0 | 0 | 0 | 0 | 4 | 0 | 0 | 2 | 0 | 0 | 0

Row | Target | number of time points [1] | number of time points [2] | number of time points (Torkinib) | number of time points [3] | number of time points (Motesanib (Diphosphate)) | number of time points (Motesanib) | number of time points [4] | number of time points [5] | number of time points [6] | number of time points (Sunitinib) | number of time points (Pelitinib) | number of time points (JNK Inhibitor VIII) | number of time points [7] | number of time points [8] | number of time points (Ripretinib) | number of time points (Dovitinib (lactate)) | number of time points (Dovitinib) | number of time points (Sotrastaurin) | number of time points (Sorafenib (Tosylate))
17 | RPS6KA1 (UniProt Q15418) | 0 | 0 | 0 | 0 | 0 | 0 | 0 | 0 | 0 | 0 | 0 | 0 | 0 | 0 | 0 | 0 | 0 | 0 | 0
18 | STK24 (UniProt Q9Y6E0) | 0 | 0 | 0 | 0 | 0 | 0 | 0 | 0 | 0 | 0 | 0 | 0 | 0 | 0 | 0 | 0 | 0 | 0 | 0
19 | MAPKAPK2 (UniProt P49137) | 0 | 0 | 0 | 0 | 0 | 0 | 0 | 0 | 0 | 0 | 0 | 0 | 0 | 0 | 0 | 0 | 0 | 0 | 0
20 | MAP2K1 (UniProt Q02750) | 0 | 0 | 0 | 0 | 0 | 0 | 0 | 0 | 0 | 0 | 0 | 0 | 0 | 0 | 0 | 0 | 0 | 0 | 0
21 | LIMK2 (UniProt P53671) | 0 | 3 | 1 | 0 | 0 | 0 | 0 | 0 | 0 | 0 | 0 | 0 | 3 | 0 | 0 | 0 | 0 | 0 | 0
22 | CDK3 (UniProt Q00526) | 0 | 0 | 0 | 0 | 0 | 0 | 0 | 0 | 0 | 0 | 0 | 0 | 1 | 0 | 1 | 0 | 0 | 0 | 0
23 | SPHK1 (UniProt Q9NYA1) | 0 | 0 | 0 | 0 | 0 | 0 | 0 | 0 | 0 | 0 | 0 | 0 | 1 | 0 | 0 | 0 | 0 | 0 | 0
24 | RIOK1 (UniProt Q9BRS2) | 0 | 0 | 0 | 3 | 0 | 0 | 0 | 0 | 0 | 0 | 0 | 0 | 0 | 0 | 0 | 0 | 0 | 0 | 0
25 | PTK2B (UniProt Q14289) | 0 | 0 | 0 | 2 | 0 | 0 | 0 | 0 | 0 | 0 | 0 | 0 | 1 | 0 | 0 | 0 | 0 | 0 | 0
26 | TYK2 (UniProt P29597) | 0 | 3 | 1 | 2 | 0 | 0 | 0 | 0 | 0 | 0 | 4 | 0 | 2 | 0 | 0 | 0 | 0 | 0 | 0
27 | DYRK2 (UniProt Q92630) | 0 | 0 | 0 | 4 | 0 | 0 | 0 | 0 | 0 | 0 | 0 | 0 | 2 | 0 | 4 | 0 | 0 | 0 | 0
28 | MAP4K2 (UniProt Q12851) | 0 | 0 | 0 | 0 | 0 | 0 | 0 | 0 | 0 | 0 | 0 | 0 | 0 | 0 | 0 | 0 | 0 | 0 | 0
29 | PRKCA (UniProt P17252) | 0 | 0 | 0 | 0 | 0 | 0 | 0 | 0 | 0 | 0 | 0 | 0 | 0 | 0 | 0 | 0 | 0 | 0 | 0
30 | MKNK1 (UniProt Q9BUB5) | 0 | 0 | 0 | 3 | 0 | 0 | 0 | 0 | 0 | 0 | 0 | 0 | 0 | 0 | 5 | 0 | 0 | 0 | 0
31 | EPHA2 (UniProt P29317) | 0 | 0 | 0 | 2 | 0 | 0 | 0 | 0 | 0 | 0 | 5 | 0 | 2 | 0 | 0 | 0 | 0 | 0 | 0
32 | MAP2K2 (UniProt P36507) | 0 | 0 | 0 | 0 | 0 | 0 | 0 | 0 | 0 | 0 | 0 | 0 | 0 | 0 | 1 | 0 | 0 | 0 | 0

Looked up above.
Under number of time points [4], PTK2B (UniProt Q14289) has the entry 0
Under number of time points (Pelitinib), PIK4CB (UniProt Q9UBF8) has the entry 0
